Source: patent EP2982983B1, “METHOD FOR DRUG SUSCEPTIBILITY TESTING OF MYCOBACTERIUM TUBERCULOSIS BY ELECTRON PARAMAGNETIC RESONANCE” (priority 2014, dated 2016)
At least one compound was matched to its structure with a doubt left.

What was measured:
Assay type in all cases: cell-based, Mycobacterium tuberculosis
[1] = system: rifampicin-susceptible clinical isolate 5050; assay: EPR spin probe (CPH) measurement of radicals in bacterial lysates after incubation with drug; details: rifampicin 8 µg/ml (Cmax) for 24 hours, compared with control
[2] = system: rifampicin-susceptible clinical isolate 5502; assay: as above; details: rifampicin 8 µg/ml (Cmax) for 24 hours, compared with control
[3] = system: M. tuberculosis H37Rv (ATCC 27294); details: 0.125, 0.5, 2.0 and 8.0 µg/ml rifampicin for 24 hours; highest values with 2 and 8 µg/ml

## CO[C@H]1/C=C/O[C@@]2(C)Oc3c(C)c(O)c4c(O)c(c(/C=N/N5CCN(C)CC5)c(O)c4c3C2=O)NC(=O)/C(C)=C\C=C\[C@H](C)[C@H](O)[C@@H](C)[C@@H](O)[C@@H](C)[C@H](OC(C)=O)[C@@H]1C [rifampicin]
[1]
  radical production (rate of CP^• formation): increase in radical production
[2]
  radical production (rate of CP^• formation): increase in radical production
[3]
  rate of CP^• formation (dose-response): increased with drug concentration
